# Measured values published in the supplement of paper PMC8728848.
# The other results are listed elsewhere or left out.
# Columns and labels:
# Experiment in all cases: glycan array binding signal (z-score within array); higher = stronger binding
# Conditions in all cases: glycan notation: IUPAC condensed, linker removed
# [1] = biological target: Fuc(a1-2)[Gal(a1-4)]Gal(b1-4)GlcNAc
# In short: (§1)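 Glycan array data came from 3228 arrays in the Consortium for Functional Glycomics database, and only arrays with an available protein sequence were kept. Glycan names were put into IUPAC-condensed notation, and columns mapping to the same glycan were averaged. The binding signal is a within-array Z-score, averaged across arrays of one protein sequence run at different concentrations or buffers and across linkers. A negative Z-score can be read as non-binding.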
# [2] = biological target: Fuc(a1-2)[GalNAc(a1-3)]Gal
# In short: as §1
# [3] = biological target: Fuc(a1-2)[GalNAc(a1-3)]Gal(b1-3)GalNAc(a1-3)[Fuc(a1-2)]Gal(b1-4)GlcNAc
# In short: as §1
# [4] = biological target: Fuc(a1-2)[GalNAc(a1-3)]Gal(b1-3)GlcNAc
# In short: as §1
# [5] = biological target: Fuc(a1-2)[GalNAc(a1-3)]Gal(b1-3)GlcNAc(b1-2)Man(a1-3)[Fuc(a1-2)[GalNAc(a1-3)]Gal(b1-3)GlcNAc(b1-2)Man(a1-6)]Man(b1-4)GlcNAc(b1-4)GlcNAc
# In short: as §1
# [6] = biological target: Fuc(a1-2)[GalNAc(a1-3)]Gal(b1-4)Glc
# In short: as §1
# [7] = biological target: Fuc(a1-2)[GalNAc(a1-3)]Gal(b1-4)GlcNAc
# In short: as §1
# [8] = biological target: Fuc(a1-2)[GalNAc(a1-3)]Gal(b1-4)GlcNAc(b1-2)Man(a1-3)[Fuc(a1-2)[GalNAc(a1-3)]Gal(b1-4)GlcNAc(b1-2)Man(a1-6)]Man(b1-4)GlcNAc(b1-4)GlcNAc
# In short: as §1
# [9] = biological target: Fuc(a1-2)[GalNAc(a1-3)]Gal(b1-4)GlcNAc(b1-3)Gal(b1-4)GlcNAc
# In short: as §1
# [10] = biological target: Fuc(a1-2)[GalNAc(a1-3)]Gal(b1-4)GlcNAc(b1-3)Gal(b1-4)GlcNAc(b1-3)Gal(b1-4)GlcNAc
# In short: as §1
# [11] = biological target: Fuc(a1-2)[GalNAc(a1-3)]Gal(b1-4)[Fuc(a1-3)]GlcNAc
# In short: as §1
# [12] = biological target: Fuc(a1-2)[GalNAc(a1-4)]Gal(b1-4)GlcNAc
# In short: as §1
# [13] = biological target: Fuc(a1-2)[GalNAc(b1-3)]Gal
# In short: as §1
# Fuc(a1-3)GlcNAc = biological target: Fuc(a1-3)GlcNAc
# In short: as §1
# [14] = biological target: Fuc(a1-3)[Gal(b1-4)]Glc6S
# In short: as §1
# [15] = biological target: Fuc(a1-3)[Gal(b1-4)]GlcNAc
# In short: as §1
# [16] = biological target: Fuc(a1-3)[Gal(b1-4)]GlcNAc(b1-2)Man(a1-3)[Fuc(a1-3)[Gal(b1-4)]GlcNAc(b1-2)Man(a1-6)]Man(b1-4)GlcNAc(b1-4)GlcNAc
# In short: as §1
# [17] = biological target: Fuc(a1-3)[Gal(b1-4)]GlcNAc(b1-3)Gal(b1-3)[Fuc(a1-4)]GlcNAc
# In short: as §1
# [18] = biological target: Fuc(a1-3)[Gal(b1-4)]GlcNAc(b1-3)GalNAc
# In short: as §1
# [19] = biological target: Fuc(a1-3)[Gal(b1-4)]GlcNAc(b1-4)Gal(b1-4)[Fuc(a1-3)]GlcNAc
# In short: as §1
# [20] = biological target: Fuc(a1-3)[Gal(b1-4)]GlcNAc(b1-4)Gal(b1-4)[Fuc(a1-3)]GlcNAc(b1-4)Gal(b1-4)[Fuc(a1-3)]GlcNAc
# In short: as §1
# [21] = biological target: Fuc(a1-3)[Gal(b1-4)]GlcNAc(b1-6)[Gal(b1-3)GlcNAc(b1-3)]Gal(b1-4)Glc
# In short: as §1
# [22] = biological target: Fuc(a1-3)[Gal(b1-4)]GlcNAc6S
# In short: as §1
# [23] = biological target: Fuc(a1-3)[Gal3S(b1-4)]GlcNAc
# In short: as §1
# [24] = biological target: Fuc(a1-3)[Gal3S(b1-4)]GlcNAc6S
# In short: as §1
# [25] = biological target: Fuc(a1-3)[GalNAc(b1-4)]GlcNAc
# In short: as §1
# Fuc(a1-4)GlcNAc = biological target: Fuc(a1-4)GlcNAc
# In short: as §1
# Fuc(b1-3)GlcNAc = biological target: Fuc(b1-3)GlcNAc
# In short: as §1
# Gal(a1-2)Gal = biological target: Gal(a1-2)Gal
# In short: as §1
# Gal(a1-3)Gal = biological target: Gal(a1-3)Gal
# In short: as §1
# Gal(a1-3)Gal(b1-3)GlcNAc = biological target: Gal(a1-3)Gal(b1-3)GlcNAc
# In short: as §1
# [26] = biological target: Gal(a1-3)Gal(b1-3)GlcNAc(b1-2)Man(a1-3)[Gal(a1-3)Gal(b1-3)GlcNAc(b1-2)Man(a1-6)]Man(b1-4)GlcNAc(b1-4)GlcNAc
# In short: as §1
# [27] = biological target: Gal(a1-3)Gal(b1-3)[Fuc(a1-4)]GlcNAc(b1-2)Man(a1-3)[Gal(a1-3)Gal(b1-3)[Fuc(a1-4)]GlcNAc(b1-2)Man(a1-6)]Man(b1-4)GlcNAc(b1-4)GlcNAc
# In short: as §1
# Gal(a1-3)Gal(b1-4)Glc = biological target: Gal(a1-3)Gal(b1-4)Glc
# In short: as §1
# Gal(a1-3)Gal(b1-4)GlcNAc = biological target: Gal(a1-3)Gal(b1-4)GlcNAc
# In short: as §1
# [28] = biological target: Gal(a1-3)Gal(b1-4)GlcNAc(b1-3)GalNAc
# In short: as §1
# [29] = biological target: Gal(a1-3)Gal(b1-4)[Fuc(a1-3)]GlcNAc
# In short: as §1
# [30] = biological target: Gal(a1-3)Gal(b1-4)[Fuc(a1-3)]GlcNAc(b1-2)Man(a1-3)[Gal(a1-3)Gal(b1-4)[Fuc(a1-3)]GlcNAc(b1-2)Man(a1-6)]Man(b1-4)GlcNAc(b1-4)GlcNAc
# In short: as §1
binder,measurement,setting,value
"SRS6 (Toxoplasma gondii), Q9NH12 (protein) MARTGSMQQRRGGFQTTARMLMAVCVSGVLLLSSGPSSANKLTEGQQNQNSGPGAATQEGPTIEGAVAKCVLKTTAAENGSSRAKNTTGLTLSKENLVVSLQCSGEKNAIVPKDQKKVCSAAPNAKVADCKGADTDKQVTLKSLLGTSGDIQWEKTIVSTDNKGEVMTLKIKESELPLFDKAFFVGCEEDKAQTRTSQATECKVNVSVKARPSTVGENNVVTCAYGKDSNPRPLEVEMSADNDTLTIDCGTDGSLKPTKYTEEFCVTDNSQLESCTTKKFSEILPTFLPSWWVSDSQNGSAKLTIPESGFPEEQQQFRLGCVPKKTTQSPQANPSVKTEKEEGAQNTDASTSNCSVIVTVKASNFSSLASSIAPTAAVAGGAAALTGFLVGSF",glycan array binding signal (z-score),[1],-0.08
same,glycan array binding signal (z-score),[2],-0.123
same,glycan array binding signal (z-score),[3],-0.633
same,glycan array binding signal (z-score),[4],-0.195
same,glycan array binding signal (z-score),[5],-0.377
same,glycan array binding signal (z-score),[6],-0.184
same,glycan array binding signal (z-score),[7],-0.237
same,glycan array binding signal (z-score),[8],0.609
same,glycan array binding signal (z-score),[9],0.238
same,glycan array binding signal (z-score),[10],-0.105
same,glycan array binding signal (z-score),[11],0.175
same,glycan array binding signal (z-score),[12],-0.676
same,glycan array binding signal (z-score),[13],0.58
same,glycan array binding signal (z-score),Fuc(a1-3)GlcNAc,0.492
same,glycan array binding signal (z-score),[14],0.505
same,glycan array binding signal (z-score),[15],-0.325
same,glycan array binding signal (z-score),[16],1.58
same,glycan array binding signal (z-score),[17],0.049
same,glycan array binding signal (z-score),[18],-0.397
same,glycan array binding signal (z-score),[19],-0.045
same,glycan array binding signal (z-score),[20],-0.089
same,glycan array binding signal (z-score),[21],-0.373
same,glycan array binding signal (z-score),[22],0.259
same,glycan array binding signal (z-score),[23],1.04
same,glycan array binding signal (z-score),[24],0.773
same,glycan array binding signal (z-score),[25],-0.203
same,glycan array binding signal (z-score),Fuc(a1-4)GlcNAc,-0.014
same,glycan array binding signal (z-score),Fuc(b1-3)GlcNAc,0.841
same,glycan array binding signal (z-score),Gal(a1-2)Gal,-1.97
same,glycan array binding signal (z-score),Gal(a1-3)Gal,0.351
same,glycan array binding signal (z-score),Gal(a1-3)Gal(b1-3)GlcNAc,-0.102
same,glycan array binding signal (z-score),[26],-1.1
same,glycan array binding signal (z-score),[27],-0.513
same,glycan array binding signal (z-score),Gal(a1-3)Gal(b1-4)Glc,0.301
same,glycan array binding signal (z-score),Gal(a1-3)Gal(b1-4)GlcNAc,-0.113
same,glycan array binding signal (z-score),[28],0.006
same,glycan array binding signal (z-score),[29],-0.047
same,glycan array binding signal (z-score),[30],0.436

# Part of the list above, bar-delimited.
binder | measurement | setting | value
SRS6 (Toxoplasma gondii), Q9NH12 (protein) MARTGSMQQRRGGFQTTARMLMAVCVSGVLLLSSGPSSANKLTEGQQNQNSGPGAATQEGPTIEGAVAKCVLKTTAAENGSSRAKNTTGLTLSKENLVVSLQCSGEKNAIVPKDQKKVCSAAPNAKVADCKGADTDKQVTLKSLLGTSGDIQWEKTIVSTDNKGEVMTLKIKESELPLFDKAFFVGCEEDKAQTRTSQATECKVNVSVKARPSTVGENNVVTCAYGKDSNPRPLEVEMSADNDTLTIDCGTDGSLKPTKYTEEFCVTDNSQLESCTTKKFSEILPTFLPSWWVSDSQNGSAKLTIPESGFPEEQQQFRLGCVPKKTTQSPQANPSVKTEKEEGAQNTDASTSNCSVIVTVKASNFSSLASSIAPTAAVAGGAAALTGFLVGSF | glycan array binding signal (z-score) | [4] | -0.195
same | glycan array binding signal (z-score) | [5] | -0.377
